Laboratory results as given in the supplement of paper PMC12067093, “Discovery and optimisation of a covalent ligand for TRIM25 and its application to targeted protein ubiquitination” (Chemical Science, 2025).
Some of the results follow.

Chains of the proteins cited; added tags and fusions are not shown. Lines headed by an entry give the natural chain unless they say otherwise; changes in a name come on top.
UniProt Q96HC4: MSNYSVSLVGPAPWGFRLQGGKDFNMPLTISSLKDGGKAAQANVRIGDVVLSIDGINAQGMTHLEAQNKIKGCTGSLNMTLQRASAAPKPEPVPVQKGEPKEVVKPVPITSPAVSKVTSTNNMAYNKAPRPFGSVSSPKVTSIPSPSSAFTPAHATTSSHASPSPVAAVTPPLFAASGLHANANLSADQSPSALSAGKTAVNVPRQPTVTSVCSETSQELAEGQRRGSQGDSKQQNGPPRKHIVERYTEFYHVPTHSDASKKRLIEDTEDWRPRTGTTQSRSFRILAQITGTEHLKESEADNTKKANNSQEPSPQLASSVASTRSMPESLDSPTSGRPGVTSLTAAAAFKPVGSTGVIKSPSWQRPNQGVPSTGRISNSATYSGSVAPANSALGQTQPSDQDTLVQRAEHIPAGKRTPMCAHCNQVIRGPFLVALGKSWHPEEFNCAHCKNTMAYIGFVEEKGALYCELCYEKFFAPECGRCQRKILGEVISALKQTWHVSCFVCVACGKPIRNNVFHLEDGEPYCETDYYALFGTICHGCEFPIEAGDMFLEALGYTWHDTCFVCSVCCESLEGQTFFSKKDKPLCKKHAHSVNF
UniProt Q53EL6: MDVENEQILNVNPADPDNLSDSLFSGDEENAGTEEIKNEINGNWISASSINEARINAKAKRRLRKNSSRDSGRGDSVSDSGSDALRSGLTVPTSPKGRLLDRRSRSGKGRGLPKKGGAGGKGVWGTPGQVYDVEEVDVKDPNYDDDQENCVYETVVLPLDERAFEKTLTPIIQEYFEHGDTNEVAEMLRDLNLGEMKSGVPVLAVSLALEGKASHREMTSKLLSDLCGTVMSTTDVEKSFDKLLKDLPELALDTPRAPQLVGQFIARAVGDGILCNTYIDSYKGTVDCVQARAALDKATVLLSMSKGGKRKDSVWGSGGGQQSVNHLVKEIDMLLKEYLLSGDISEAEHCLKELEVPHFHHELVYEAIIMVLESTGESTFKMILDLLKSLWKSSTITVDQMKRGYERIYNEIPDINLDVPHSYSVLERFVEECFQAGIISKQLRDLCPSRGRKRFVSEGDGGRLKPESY
UniProt O15530: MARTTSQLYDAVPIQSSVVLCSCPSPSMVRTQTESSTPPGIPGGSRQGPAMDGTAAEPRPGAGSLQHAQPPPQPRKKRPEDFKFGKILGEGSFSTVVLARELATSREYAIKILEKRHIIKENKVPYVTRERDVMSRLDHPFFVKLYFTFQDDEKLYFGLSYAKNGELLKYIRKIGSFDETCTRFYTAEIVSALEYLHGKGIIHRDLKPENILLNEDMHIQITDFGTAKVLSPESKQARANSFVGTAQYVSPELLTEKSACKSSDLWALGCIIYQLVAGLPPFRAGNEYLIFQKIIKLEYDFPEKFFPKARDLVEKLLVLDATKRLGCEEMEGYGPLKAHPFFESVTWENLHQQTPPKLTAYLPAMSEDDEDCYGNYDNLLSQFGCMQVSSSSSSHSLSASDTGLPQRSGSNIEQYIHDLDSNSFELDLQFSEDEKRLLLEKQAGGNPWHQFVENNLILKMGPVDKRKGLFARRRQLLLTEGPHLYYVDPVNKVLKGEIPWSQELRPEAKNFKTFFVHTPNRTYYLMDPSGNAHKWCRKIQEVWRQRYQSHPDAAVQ
UniProt Q9NTI5: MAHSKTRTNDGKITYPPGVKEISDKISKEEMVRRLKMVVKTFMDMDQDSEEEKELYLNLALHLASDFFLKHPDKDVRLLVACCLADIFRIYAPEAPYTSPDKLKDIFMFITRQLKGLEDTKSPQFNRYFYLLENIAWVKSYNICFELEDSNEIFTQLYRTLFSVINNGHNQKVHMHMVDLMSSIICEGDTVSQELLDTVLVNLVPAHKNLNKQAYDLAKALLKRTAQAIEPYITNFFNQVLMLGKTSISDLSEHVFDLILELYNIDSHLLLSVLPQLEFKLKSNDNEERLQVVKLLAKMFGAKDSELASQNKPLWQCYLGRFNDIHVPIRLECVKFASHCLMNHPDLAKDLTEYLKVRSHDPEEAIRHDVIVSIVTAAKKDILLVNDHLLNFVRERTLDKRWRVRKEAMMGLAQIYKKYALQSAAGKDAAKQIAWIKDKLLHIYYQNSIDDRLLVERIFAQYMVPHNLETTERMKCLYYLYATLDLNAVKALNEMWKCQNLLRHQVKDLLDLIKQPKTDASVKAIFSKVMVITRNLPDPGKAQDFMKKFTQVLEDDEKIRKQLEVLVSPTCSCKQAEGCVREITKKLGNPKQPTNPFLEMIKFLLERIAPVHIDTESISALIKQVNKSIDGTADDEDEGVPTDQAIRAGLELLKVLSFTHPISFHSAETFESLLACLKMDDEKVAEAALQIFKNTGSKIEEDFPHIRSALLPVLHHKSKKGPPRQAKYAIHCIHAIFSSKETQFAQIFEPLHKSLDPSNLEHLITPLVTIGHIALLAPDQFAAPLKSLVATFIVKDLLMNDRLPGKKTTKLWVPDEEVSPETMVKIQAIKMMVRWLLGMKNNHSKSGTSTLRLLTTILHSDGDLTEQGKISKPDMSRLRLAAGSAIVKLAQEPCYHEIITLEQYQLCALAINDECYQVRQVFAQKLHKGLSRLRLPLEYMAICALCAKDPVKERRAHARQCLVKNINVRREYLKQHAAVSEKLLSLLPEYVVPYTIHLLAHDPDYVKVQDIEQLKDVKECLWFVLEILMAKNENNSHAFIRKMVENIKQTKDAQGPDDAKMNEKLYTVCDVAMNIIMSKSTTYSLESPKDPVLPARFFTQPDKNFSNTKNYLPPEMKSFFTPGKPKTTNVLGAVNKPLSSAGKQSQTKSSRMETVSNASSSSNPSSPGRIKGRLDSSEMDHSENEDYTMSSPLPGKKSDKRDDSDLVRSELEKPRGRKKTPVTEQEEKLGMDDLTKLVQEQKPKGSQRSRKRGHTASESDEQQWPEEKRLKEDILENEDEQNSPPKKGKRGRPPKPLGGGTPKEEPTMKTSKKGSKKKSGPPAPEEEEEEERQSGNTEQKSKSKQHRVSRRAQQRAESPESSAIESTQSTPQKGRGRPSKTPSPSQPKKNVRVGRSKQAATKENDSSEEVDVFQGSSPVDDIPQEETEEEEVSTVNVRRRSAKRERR
UniProt P30101, whole entry, looked up: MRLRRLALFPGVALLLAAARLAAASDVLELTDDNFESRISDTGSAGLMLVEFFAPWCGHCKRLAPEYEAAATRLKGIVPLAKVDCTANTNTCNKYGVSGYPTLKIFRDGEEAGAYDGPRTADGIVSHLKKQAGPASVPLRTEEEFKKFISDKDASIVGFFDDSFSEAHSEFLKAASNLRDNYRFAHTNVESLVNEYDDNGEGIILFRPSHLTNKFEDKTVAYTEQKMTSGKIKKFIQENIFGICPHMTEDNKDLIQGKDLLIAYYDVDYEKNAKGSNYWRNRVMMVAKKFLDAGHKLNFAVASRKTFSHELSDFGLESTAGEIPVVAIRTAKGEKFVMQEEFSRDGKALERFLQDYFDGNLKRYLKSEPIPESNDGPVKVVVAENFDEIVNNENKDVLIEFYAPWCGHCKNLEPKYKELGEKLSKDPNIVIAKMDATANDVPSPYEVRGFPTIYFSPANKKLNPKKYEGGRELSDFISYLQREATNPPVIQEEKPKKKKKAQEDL
UniProt Q9NR12, whole entry, looked up: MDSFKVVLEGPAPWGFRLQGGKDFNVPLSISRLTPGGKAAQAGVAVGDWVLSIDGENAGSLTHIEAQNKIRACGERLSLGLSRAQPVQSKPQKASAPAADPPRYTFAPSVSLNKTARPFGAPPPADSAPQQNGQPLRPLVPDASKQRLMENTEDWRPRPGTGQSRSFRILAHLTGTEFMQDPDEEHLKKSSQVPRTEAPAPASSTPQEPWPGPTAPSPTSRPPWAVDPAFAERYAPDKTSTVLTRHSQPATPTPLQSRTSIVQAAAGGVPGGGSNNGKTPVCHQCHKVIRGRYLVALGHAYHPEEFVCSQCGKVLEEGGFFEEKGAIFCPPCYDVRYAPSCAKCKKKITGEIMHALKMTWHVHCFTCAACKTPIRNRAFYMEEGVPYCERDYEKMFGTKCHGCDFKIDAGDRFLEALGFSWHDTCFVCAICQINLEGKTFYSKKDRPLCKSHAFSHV
UniProt Q16822, whole entry, looked up: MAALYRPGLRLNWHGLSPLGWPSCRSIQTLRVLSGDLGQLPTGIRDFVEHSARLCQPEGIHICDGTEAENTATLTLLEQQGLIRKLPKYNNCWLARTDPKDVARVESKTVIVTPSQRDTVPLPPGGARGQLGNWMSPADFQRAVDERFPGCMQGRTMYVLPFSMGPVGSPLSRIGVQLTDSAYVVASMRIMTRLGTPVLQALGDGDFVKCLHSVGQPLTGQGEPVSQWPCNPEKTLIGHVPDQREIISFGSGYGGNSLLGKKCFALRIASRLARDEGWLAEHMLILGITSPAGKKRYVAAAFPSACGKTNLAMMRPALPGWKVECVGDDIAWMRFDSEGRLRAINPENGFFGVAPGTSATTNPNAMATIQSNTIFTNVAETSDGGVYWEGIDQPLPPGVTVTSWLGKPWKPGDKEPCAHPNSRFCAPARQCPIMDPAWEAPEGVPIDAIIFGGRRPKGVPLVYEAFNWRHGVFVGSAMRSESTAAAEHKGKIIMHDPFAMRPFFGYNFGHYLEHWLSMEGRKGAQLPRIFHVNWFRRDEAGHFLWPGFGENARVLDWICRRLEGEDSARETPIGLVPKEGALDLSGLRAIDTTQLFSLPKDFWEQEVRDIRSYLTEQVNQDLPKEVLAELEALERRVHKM
UniProt Q14690: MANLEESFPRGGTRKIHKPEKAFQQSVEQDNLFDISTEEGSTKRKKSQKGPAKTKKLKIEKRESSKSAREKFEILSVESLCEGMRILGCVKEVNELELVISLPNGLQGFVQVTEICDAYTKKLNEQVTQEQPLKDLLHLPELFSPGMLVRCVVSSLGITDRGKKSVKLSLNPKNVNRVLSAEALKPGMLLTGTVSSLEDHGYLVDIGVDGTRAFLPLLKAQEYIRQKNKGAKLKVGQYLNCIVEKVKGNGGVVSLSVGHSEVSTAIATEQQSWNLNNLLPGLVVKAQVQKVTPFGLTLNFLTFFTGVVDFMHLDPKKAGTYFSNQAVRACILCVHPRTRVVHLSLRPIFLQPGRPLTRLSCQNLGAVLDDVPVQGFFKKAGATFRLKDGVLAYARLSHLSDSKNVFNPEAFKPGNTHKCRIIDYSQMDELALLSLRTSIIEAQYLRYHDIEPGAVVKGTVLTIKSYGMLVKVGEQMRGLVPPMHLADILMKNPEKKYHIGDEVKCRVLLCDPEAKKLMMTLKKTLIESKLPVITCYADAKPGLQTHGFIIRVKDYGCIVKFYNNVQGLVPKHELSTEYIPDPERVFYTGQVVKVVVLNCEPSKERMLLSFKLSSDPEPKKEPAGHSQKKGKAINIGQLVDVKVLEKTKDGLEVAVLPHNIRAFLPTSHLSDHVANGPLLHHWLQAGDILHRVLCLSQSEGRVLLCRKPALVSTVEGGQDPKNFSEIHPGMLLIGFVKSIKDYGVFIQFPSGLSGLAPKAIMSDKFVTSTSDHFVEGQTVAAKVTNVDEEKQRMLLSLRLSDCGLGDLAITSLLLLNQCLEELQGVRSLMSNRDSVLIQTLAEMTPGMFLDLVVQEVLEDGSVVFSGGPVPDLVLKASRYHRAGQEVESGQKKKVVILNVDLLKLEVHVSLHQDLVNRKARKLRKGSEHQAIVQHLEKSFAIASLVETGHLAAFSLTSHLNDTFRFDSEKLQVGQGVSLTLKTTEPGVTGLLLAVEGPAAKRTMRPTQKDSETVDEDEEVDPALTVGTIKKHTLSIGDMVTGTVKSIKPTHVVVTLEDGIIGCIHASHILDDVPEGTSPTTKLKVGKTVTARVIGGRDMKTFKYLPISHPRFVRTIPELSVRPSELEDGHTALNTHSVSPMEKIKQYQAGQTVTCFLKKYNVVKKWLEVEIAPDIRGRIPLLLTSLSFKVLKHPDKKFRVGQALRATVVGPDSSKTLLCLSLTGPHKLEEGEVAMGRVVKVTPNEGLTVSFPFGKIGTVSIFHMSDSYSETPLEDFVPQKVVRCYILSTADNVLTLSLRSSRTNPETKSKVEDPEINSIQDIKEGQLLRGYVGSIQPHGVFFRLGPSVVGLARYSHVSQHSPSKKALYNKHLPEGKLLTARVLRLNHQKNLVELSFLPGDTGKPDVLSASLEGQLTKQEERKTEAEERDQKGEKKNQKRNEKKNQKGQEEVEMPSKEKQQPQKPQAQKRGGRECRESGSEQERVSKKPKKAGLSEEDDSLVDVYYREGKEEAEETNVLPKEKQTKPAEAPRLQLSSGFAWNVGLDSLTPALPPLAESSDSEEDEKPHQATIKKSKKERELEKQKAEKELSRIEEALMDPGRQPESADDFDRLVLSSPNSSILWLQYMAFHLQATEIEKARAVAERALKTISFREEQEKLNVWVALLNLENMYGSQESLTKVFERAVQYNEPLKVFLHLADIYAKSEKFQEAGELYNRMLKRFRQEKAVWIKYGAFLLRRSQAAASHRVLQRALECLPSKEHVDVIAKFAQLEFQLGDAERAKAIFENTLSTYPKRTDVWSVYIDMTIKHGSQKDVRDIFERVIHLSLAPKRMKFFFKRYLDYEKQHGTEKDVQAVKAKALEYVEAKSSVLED

Compound: Cc1cc(ccc1-c1ccccc1)C(=O)N1CCCN(CC1)C(=O)CCl [compound 10]
Assay: probe-labelled cysteine peptide fold change vs DMSO (competition) (log2 fold change); higher = less target engagement (more negative = stronger competition)
Conditions: THP-1, incubation time: 4 h
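Also: competitive profiling in live THP-1 cells: cysteine peptides tagged with an iodoacetamide desthiobiotin (IA-DTB) probe, intensity after compound treatment relative to DMSO-treated cells.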

Target	probe-labelled cysteine peptide fold change (10 µM)	probe-labelled cysteine peptide fold change (50 µM)
PCNT_O95613_1119_DQVLSLSHEIEECRSELEVLQQR (UniProt O95613)	0.112	0.146
PDXP_Q96GD0_171_DPECLLVATDRDPWHPLSDGSR (UniProt Q96GD0)	-0.0117	0.321
PDLIM5_Q96HC4_449_SWHPEEFNCAHCK (UniProt Q96HC4)	0.0465	-0.346
PDE12_Q6L8Q7_268+277_ELESVCVVEAGPGTCTFDHR (UniProt Q6L8Q7)	0.0485	0.0303
PCNT_O95613_357_DLCLENLR (UniProt O95613)	0.271	0.13
PDCD4_Q53EL6_350_EYLLSGDISEAEHCLK (UniProt Q53EL6)	0.187	0.242
PDPK1_O15530_181_KIGSFDETCTR (UniProt O15530)	-0.0166	-0.0773
PDS5B_Q9NTI5_732_YAIHCIHAIFSSK (UniProt Q9NTI5)	-0.000746	0.245
PDS5B_Q9NTI5_946_LPLEYMAICALCAK (UniProt Q9NTI5)	0.129	0.149
PDK3_Q15120_191_HIGSIDPTCNVADVVK (UniProt Q15120)	0.207	-0.0672
PCNT_O95613_2278_ADTSLPQTQGPGLLCSPGVSAAALALQWAESPPADDHHVQR (UniProt O95613)	-0.0716	0.29
PDS5A_Q29RF7_486_CLYYLYASLDPNAVK (UniProt Q29RF7)	-0.015	-0.0122
PDIA3_P30101_85+92_VDCTANTNTCNK (UniProt P30101)	-0.107	-0.048
PCNT_O95613_974_HLSSLDSLESCYLSEFQTIR (UniProt O95613)	0.0332	0.0375
PDXK_O00764_112_LVYVCDPVLGDK (UniProt O00764)	-0.0684	0.408
PDPR_Q8NCN5_653_AVDVLSELSYAPMTPDHFPSLFCK (UniProt Q8NCN5)	0.213	-0.0693
PDS5A_Q29RF7_742_QAVHCIHAIFTNK (UniProt Q29RF7)	0.159	0.0956
PDSS2_Q86YH6_71_CLLSDELSNIAMQVR (UniProt Q86YH6)	-0.424	-2.09
PARS2_Q7L3T8_68_SDDLTCK (UniProt Q7L3T8)	-0.0866	-0.0199
PDLIM7_Q9NR12_308+311_YLVALGHAYHPEEFVCSQCGK (UniProt Q9NR12)	0.177	-0.0825
PBRM1_Q86U86_450_NQEYETLDHLECDLNLMFENAK (UniProt Q86U86)	-0.043	-0.0946
PDCD4_Q53EL6_288_GTVDCVQAR (UniProt Q53EL6)	0.204	-0.0332
PDK1_Q15118_240_RLCDLYYINSPELELEELNAK (UniProt Q15118)	0.295	0.281
PCK2_Q16822_559_VLDWICR (UniProt Q16822)	0.0851	0.0116
PCK2_Q16822_151_AVDERFPGCMQGR (UniProt Q16822)	-0.169	-0.508
PDLIM2_Q96JY6_310_YRHPGCYTCADCGLNLK (UniProt Q96JY6)	0.00151	-0.173
PCK2_Q16822_92_YNNCWLAR (UniProt Q16822)	-0.205	-0.141

Target	probe-labelled cysteine peptide fold change (10 µM)	probe-labelled cysteine peptide fold change (50 µM)
PDIA3_P30101_244_KFIQENIFGICPHMTEDNK (UniProt P30101)	-0.0467	-0.176
PDS5A_Q29RF7_1079_LYTVCDVALCVINSK (UniProt Q29RF7)	0.0414	-0.159
PBLD_P30039_24_GNPAAVCLLENELDEDMHQK (UniProt P30039)	-0.211	-0.0879
PDIA5_Q14554_305_EHSSVLVMFHAPWCGHCK (UniProt Q14554)	-0.084	-0.37
PCNT_O95613_1252_ECEQPIRR (UniProt O95613)	0.143	-0.349
PDIA3_P30101_57+60_ISDTGSAGLMLVEFFAPWCGHCK (UniProt P30101)	-0.103	-0.72
PDCD11_Q14690_333_ACILCVHPR (UniProt Q14690)	-0.105	-0.399
PCBP2_Q15366_301_GYWGLDASAQTTSHELTIPNDLIGCIIGR (UniProt Q15366)	0.263	-0.272
PDCD11_Q14690_510_VLLCDPEAK (UniProt Q14690)	-0.0625	0.0212
PASK_Q96RG2_759+761_ELFFSDQTDQTSSNCSCATSELR (UniProt Q96RG2)	-0.0514	-0.658
PCYT1A_P49585_113_NLFPNTYLIVGVCSDELTHNFK (UniProt P49585)	-0.00819	0.012
PDPK1_O15530_181_IGSFDETCTR (UniProt O15530)	0.00296	0.209
PCNT_O95613_2446_TQEVPTACPDWR (UniProt O95613)	-0.19	-0.35
PARP9_Q8IXQ6_82_QLCEVLQNK (UniProt Q8IXQ6)	-0.3	-0.162
PCMT1_P22061_43_CNPYMDSPQSIGFQATISAPHMHAYALELLFDQLHEGAK (UniProt P22061)	-0.0496	-0.164
PCBP3_P57721_86_INISEGNCPER (UniProt P57721)	-0.122	-0.352
PDF_Q9HBH1_132_QVLALELPEALCR (UniProt Q9HBH1)	0.151	0.278
PDLIM5_Q96HC4_479_FFAPECGR (UniProt Q96HC4)	-0.0149	-0.153
PCBP2_Q15366_158_AITIAGIPQSIIECVK (UniProt Q15366)	0.149	-0.0185
PCCB_P05166_269_AFENDVDALCNLR (UniProt P05166)	-0.156	-0.546
PCK2_Q16822_325_VECVGDDIAWMR (UniProt Q16822)	-0.00811	-0.0679
PDLIM1_O00151_283+289_HRHPECYVCTDCGTNLK (UniProt O00151)	0.0267	0.00299
PDLIM7_Q9NR12_388_AFYMEEGVPYCERDYEK (UniProt Q9NR12)	-0.134	-0.663
PDIA4_P13667_91+94_DTVLLEFYAPWCGHCK (UniProt P13667)	-0.227	-1.17
PDCL_Q13371_291_NSATCHSEDSDLEID (UniProt Q13371)	-0.381	-0.41
PCF11_O94913_1518_NELQEPCDSPK (UniProt O94913)	-0.142	-0.22
